Reference: ChEMBL document CHEMBL4513141, “CO-ADD screening of NIH (USA) - Clinical Collection” (2021)
The list shows a part of the results, in another mix than the full data. Results with a measured potency or affinity are listed apart.

Test system: Escherichia coli
Conditions: Concentration 20 uM; ASSAY_TEST Inhibition of Bacterial Growth; detection method Absorption (OD600); MEDIA CAMHB; plate type 384well; NBS; CORNING #3640; time 18 hr

With C[N+]1(C)CCC(OC(=O)C(O)(c2ccccc2)C2CCCC2)C1.[Br-] (stereo unspecified) [GLYCOPYRRONIUM BROMIDE] as the molecule, how does the Inhibition read?
Its Inhibition is 3.03%.
